Measurements reported in PubChem BioAssay AID1159578 (Peter MacCallum Cancer Centre, 2015)

- Aim: 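siRNA pools altering how lymphatic endothelial cells close a scratch wound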 (primary screen)
- System: human lymphatic endothelial cells
- Reagent: siRNA pool against human genes, 40 nM
- Time to read-out: 48 h after transfection
- Read-out: 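Cells stained with dye and imaged after a scratch; covered wound area and nuclei counted, duplicates averaged, migration set against mock wells and turned into a robust z-score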
- Reading the numbers: migration robust z-score: higher = faster migration into the scratch; migration relative to mock: higher = more scratch area covered than mock; nuclei per well: higher = more cells in the well
- Active means: 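Migration changed when robust z exceeds 2 or falls below -2 and mean nuclei number is at least 3300; otherwise not called changed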
- Calls: active = migration changed; inactive = no migration change, or too few cells
This is an unselected part of about 18,000 reagents tested. About 1,030 of them (5.7%) count as active. 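Inactive calls also include pools with fewer than 3300 nuclei, whose migration was not assessed.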 The raw values are shown without normalisation. No sequences are given here.

gene symbol | migration robust z-score | migration class with cell-count check | migration relative to mock | nuclei per well, duplicate mean | activity call
ATP1A2 | -0.26 | migration z between -2 and 2; enough cells | 0.75 | 6180 | inactive
SYT3 | 0.1 | migration z between -2 and 2; enough cells | 0.91 | 6550 | inactive
AARS2 | 0.97 | migration z between -2 and 2; enough cells | 1.14 | 6701 | inactive
CZIB | 0.53 | migration z between -2 and 2; enough cells | 1.02 | 4683 | inactive
CYP2B6 | 0.5 | migration z between -2 and 2; enough cells | 1.02 | 5980 | inactive
PSMB9 | 2.08 | migration z above 2; enough cells | 1.21 | 6612 | active
ZNF284 | 0.76 | migration z between -2 and 2; enough cells | 1.08 | 4838 | inactive
SPMIP4 | -0.92 | migration z between -2 and 2; enough cells | 0.65 | 5456 | inactive
RAB6D | -0.51 | migration z between -2 and 2; enough cells | 0.75 | 5530 | inactive
SUPT5H | 0.16 | migration z between -2 and 2; enough cells | 0.84 | 5341 | inactive
LYRM7 | -0.55 | migration z between -2 and 2; enough cells | 0.75 | 4282 | inactive
DOK7 | 2.2 | migration z above 2; enough cells | 1.46 | 6570 | active
KIF11 | -1.09 | under 3300 nuclei; migration not judged | 0.6 | 2930 | inactive
PTK6 | -0.39 | migration z between -2 and 2; enough cells | 0.73 | 5099 | inactive
TRIM50 | -0.16 | migration z between -2 and 2; enough cells | 0.78 | 6110 | inactive
METTL25B | 1.39 | migration z between -2 and 2; enough cells | 1.25 | 6122 | inactive
CFAP91 | 1.21 | migration z between -2 and 2; enough cells | 1.2 | 7094 | inactive
ALOX15 | -0.34 | migration z between -2 and 2; enough cells | 0.74 | 5828 | inactive
GTPBP4 | 0.42 | migration z between -2 and 2; enough cells | 1 | 6026 | inactive
PRKAR2B | -1.09 | migration z between -2 and 2; enough cells | 0.6 | 4899 | inactive
PPP2R5E | -0.99 | migration z between -2 and 2; enough cells | 0.62 | 4760 | inactive
GSTA5 | -0.26 | migration z between -2 and 2; enough cells | 0.76 | 5749 | inactive
PCDHA5 | 1.28 | migration z between -2 and 2; enough cells | 1.22 | 5530 | inactive

Copied from the entries so far (4 entries):
gene symbol | migration robust z-score | migration class with cell-count check | migration relative to mock | nuclei per well, duplicate mean | activity call
CYP2B6 | 0.5 | migration z between -2 and 2; enough cells | 1.02 | 5980 | inactive
PSMB9 | 2.08 | migration z above 2; enough cells | 1.21 | 6612 | active
ZNF284 | 0.76 | migration z between -2 and 2; enough cells | 1.08 | 4838 | inactive
SPMIP4 | -0.92 | migration z between -2 and 2; enough cells | 0.65 | 5456 | inactive
